Experimental data taken from the supplement of paper PMC10849652.
Some of the results follow.

Amino acid sequences for entries named in this document (tags omitted). A change or cut given only in a name is not applied to a line headed by its entry.
UniProt Q9UKA4: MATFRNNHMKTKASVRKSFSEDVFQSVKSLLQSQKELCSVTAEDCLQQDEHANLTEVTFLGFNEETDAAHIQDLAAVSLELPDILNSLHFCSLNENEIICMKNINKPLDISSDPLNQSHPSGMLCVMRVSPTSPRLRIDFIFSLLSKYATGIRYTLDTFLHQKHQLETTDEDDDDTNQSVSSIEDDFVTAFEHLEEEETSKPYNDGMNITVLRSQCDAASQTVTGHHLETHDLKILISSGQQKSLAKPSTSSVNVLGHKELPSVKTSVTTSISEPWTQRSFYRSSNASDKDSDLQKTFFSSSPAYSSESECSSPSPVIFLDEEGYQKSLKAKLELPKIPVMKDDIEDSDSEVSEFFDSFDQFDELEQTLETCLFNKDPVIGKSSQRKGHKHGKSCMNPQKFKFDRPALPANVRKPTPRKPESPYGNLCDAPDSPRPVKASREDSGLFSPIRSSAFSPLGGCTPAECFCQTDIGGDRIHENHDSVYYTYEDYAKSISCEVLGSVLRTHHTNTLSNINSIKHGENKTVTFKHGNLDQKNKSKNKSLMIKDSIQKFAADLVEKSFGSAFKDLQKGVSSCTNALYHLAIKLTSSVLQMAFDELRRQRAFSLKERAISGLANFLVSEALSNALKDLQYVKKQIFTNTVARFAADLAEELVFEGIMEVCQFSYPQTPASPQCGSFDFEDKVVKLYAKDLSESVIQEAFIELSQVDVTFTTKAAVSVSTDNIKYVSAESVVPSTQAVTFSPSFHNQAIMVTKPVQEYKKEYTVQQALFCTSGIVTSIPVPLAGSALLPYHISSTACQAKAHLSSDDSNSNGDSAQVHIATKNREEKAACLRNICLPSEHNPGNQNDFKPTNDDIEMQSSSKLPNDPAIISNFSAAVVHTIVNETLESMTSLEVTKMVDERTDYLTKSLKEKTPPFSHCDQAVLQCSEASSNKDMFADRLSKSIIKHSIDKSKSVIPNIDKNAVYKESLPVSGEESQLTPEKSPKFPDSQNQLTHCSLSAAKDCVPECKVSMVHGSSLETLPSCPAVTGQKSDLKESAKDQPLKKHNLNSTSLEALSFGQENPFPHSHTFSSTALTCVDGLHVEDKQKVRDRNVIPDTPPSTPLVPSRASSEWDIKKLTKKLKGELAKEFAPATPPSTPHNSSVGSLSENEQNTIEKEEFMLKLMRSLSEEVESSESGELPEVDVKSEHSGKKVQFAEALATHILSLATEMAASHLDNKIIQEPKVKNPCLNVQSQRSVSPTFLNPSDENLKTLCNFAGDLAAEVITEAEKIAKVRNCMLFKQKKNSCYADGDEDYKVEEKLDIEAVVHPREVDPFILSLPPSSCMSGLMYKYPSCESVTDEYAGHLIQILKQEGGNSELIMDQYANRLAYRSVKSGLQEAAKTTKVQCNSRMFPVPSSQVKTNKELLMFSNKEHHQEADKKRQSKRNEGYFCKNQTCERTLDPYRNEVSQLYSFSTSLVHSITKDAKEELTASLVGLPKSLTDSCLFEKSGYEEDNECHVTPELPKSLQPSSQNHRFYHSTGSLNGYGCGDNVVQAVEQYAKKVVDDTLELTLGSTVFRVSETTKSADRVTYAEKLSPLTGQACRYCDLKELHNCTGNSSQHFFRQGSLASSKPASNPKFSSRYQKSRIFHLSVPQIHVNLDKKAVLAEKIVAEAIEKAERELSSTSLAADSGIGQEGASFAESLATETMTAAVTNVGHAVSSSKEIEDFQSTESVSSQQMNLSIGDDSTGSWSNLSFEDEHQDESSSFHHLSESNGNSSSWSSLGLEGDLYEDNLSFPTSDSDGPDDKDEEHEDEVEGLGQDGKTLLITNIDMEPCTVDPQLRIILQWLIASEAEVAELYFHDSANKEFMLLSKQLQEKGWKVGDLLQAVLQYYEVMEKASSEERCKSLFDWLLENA
UniProt P14550: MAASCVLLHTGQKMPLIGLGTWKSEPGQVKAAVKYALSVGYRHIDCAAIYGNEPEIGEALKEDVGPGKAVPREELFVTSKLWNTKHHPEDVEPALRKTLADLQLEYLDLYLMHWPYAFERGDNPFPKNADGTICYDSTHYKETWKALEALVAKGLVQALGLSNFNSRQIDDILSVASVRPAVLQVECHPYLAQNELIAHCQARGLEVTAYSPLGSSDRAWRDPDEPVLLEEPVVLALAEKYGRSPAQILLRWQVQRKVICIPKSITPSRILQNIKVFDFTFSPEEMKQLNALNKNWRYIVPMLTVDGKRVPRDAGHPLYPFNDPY
UniProt O14672: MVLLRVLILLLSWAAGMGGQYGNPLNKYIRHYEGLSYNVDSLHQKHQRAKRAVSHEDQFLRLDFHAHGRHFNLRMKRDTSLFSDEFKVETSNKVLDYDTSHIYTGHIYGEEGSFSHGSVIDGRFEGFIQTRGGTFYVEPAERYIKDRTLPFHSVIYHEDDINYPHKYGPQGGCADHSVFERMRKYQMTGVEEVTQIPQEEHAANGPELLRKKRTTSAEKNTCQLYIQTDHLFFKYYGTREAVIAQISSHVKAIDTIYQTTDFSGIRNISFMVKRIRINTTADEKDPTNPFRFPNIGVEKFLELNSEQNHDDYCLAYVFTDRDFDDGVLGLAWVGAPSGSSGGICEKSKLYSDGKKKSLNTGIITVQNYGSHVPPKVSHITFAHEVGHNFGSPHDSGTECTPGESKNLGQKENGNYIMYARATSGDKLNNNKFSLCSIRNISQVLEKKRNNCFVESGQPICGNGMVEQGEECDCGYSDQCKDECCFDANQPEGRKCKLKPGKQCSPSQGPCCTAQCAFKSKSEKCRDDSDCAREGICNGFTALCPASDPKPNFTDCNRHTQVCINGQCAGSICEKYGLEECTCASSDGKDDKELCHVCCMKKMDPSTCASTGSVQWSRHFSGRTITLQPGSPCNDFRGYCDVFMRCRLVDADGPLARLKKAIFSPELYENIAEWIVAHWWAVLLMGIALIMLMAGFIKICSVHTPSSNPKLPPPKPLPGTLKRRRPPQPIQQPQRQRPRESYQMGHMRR
UniProt Q96P47: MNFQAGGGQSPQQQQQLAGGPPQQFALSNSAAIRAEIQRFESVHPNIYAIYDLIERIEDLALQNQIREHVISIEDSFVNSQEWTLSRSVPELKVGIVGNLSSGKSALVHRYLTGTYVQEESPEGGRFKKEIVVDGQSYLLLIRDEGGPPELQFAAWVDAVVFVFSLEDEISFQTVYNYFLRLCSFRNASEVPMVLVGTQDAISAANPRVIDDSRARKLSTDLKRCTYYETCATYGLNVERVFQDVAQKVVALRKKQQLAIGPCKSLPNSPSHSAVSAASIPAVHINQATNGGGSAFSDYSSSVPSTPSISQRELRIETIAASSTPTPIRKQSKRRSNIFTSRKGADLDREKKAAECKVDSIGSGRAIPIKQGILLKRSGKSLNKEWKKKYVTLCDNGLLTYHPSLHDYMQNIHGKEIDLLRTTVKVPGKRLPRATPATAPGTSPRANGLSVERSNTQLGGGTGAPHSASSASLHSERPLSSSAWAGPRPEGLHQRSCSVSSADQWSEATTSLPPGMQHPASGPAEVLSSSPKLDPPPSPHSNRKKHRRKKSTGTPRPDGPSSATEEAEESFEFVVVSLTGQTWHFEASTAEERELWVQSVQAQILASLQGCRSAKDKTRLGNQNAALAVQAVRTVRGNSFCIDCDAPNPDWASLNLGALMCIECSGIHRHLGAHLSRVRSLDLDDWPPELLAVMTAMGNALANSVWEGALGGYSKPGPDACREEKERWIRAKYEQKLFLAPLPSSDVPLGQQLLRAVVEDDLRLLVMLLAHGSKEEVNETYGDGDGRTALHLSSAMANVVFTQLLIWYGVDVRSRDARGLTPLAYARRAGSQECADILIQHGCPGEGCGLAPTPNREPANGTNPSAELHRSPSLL
UniProt Q9UKV8, whole entry, looked up: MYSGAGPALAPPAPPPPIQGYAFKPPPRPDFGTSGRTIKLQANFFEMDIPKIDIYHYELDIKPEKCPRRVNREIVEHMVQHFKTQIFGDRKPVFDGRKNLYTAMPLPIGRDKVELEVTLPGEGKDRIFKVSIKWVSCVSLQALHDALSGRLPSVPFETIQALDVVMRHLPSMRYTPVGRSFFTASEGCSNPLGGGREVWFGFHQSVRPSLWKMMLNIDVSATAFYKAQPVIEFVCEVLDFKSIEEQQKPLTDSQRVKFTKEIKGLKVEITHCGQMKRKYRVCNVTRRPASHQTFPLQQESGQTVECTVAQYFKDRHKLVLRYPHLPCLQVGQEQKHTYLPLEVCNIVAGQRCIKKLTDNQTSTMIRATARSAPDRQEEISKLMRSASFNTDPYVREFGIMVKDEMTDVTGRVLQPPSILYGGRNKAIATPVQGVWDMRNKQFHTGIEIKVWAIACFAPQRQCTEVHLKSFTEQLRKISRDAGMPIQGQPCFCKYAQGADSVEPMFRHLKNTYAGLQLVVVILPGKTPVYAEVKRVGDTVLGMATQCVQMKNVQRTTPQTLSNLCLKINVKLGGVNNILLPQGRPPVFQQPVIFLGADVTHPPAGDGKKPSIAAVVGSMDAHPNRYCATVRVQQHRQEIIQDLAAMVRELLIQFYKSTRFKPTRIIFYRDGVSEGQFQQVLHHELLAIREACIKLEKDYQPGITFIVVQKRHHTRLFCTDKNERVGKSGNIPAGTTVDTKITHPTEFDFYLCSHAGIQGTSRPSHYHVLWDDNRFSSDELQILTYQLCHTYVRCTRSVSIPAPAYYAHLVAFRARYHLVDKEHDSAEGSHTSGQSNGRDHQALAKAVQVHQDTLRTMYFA
UniProt Q8N142: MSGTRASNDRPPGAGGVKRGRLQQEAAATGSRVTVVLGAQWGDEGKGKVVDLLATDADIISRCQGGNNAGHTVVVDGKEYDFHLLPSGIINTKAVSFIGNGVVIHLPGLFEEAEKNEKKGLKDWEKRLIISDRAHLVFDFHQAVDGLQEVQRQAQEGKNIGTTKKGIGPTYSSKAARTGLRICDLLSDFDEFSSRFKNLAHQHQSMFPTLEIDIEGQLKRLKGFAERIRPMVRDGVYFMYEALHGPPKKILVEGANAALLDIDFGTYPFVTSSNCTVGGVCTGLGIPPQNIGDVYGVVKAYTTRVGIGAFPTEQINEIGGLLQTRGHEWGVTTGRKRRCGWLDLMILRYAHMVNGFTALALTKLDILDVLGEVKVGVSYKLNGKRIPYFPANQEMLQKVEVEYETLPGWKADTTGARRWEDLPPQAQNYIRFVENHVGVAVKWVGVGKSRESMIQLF
UniProt P78536: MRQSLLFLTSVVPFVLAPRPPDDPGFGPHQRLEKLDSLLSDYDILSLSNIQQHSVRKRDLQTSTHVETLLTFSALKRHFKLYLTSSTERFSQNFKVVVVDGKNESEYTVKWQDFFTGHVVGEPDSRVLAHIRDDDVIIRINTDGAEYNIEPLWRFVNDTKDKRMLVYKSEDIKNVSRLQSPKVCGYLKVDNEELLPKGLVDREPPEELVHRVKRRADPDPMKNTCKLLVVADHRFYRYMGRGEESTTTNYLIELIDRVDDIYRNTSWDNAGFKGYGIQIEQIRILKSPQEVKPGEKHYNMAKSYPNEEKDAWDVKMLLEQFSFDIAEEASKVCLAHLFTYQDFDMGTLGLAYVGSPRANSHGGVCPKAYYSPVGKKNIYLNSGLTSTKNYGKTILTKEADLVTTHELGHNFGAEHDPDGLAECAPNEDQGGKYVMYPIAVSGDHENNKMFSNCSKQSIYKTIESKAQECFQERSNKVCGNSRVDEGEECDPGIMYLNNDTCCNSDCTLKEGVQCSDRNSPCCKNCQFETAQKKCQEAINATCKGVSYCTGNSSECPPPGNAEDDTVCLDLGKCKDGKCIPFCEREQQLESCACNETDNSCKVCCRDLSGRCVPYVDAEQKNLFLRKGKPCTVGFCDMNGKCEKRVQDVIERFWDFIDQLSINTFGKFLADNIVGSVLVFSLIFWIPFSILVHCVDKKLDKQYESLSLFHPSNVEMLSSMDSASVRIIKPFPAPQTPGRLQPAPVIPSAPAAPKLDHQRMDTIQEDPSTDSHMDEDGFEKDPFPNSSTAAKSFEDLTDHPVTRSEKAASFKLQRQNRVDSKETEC
UniProt Q53FZ2: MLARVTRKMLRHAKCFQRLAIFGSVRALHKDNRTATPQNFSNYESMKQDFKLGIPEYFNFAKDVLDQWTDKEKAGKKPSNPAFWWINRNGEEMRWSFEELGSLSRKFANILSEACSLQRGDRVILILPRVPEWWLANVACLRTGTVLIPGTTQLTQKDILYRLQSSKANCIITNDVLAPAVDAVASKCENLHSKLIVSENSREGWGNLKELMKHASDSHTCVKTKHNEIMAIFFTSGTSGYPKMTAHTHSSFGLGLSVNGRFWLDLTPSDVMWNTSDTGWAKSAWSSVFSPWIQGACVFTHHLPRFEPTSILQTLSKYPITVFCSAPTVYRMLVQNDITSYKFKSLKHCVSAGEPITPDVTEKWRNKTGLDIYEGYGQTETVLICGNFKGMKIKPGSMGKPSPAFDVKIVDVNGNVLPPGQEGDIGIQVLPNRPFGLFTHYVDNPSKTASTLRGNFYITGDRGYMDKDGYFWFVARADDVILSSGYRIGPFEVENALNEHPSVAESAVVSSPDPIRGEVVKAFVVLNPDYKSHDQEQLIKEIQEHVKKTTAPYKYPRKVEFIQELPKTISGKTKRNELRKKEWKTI

What was measured:
Assay in all cases: log2 fold change, soluble protein after heating vs DMSO (PISA); higher = thermal stabilisation; K562 lysate, 10 uM; active = over 0.2 and 3.5 SD of the protein, either way, in both replicates (recomputed)
[1] = compound: NCC(=O)Nc1ccc(-n2nc(C(F)(F)F)cc2-c2ccc3c(ccc4ccccc43)c2)cc1
Outline: (§1)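 Pellets of K562 cells were dounce-homogenised in PBS pH 7.4 with 1 mM MgCl2, and the crude extract was held at 1 mg/mL protein for a 30 min treatment with 10 μM compound. Aliquots were heated for 3 min over 48°C-58°C and pooled before NP-40 was added to 0.5% at 4°C. The supernatant from 21,000xg for 90 min was quantified by TMTpro 16plex LC-MS/MS with channel sums equalised. Values are reported from duplicates as log-two fold change in thermal stability relative to solvent controls.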

vorinostat = compound: O=C(CCCCCCC(=O)Nc1ccccc1)NO [vorinostat]
Outline: as §1

silmitasertib = compound: O=C(O)c1ccc2c(c1)nc(Nc1cccc(Cl)c1)c1ccncc12 [silmitasertib]
Outline: as §1

[2] = compound: O=C1NC(=O)C(c2cnc3ccccn23)=C1c1cn2c3c(cc(F)cc13)CN(C(=O)N1CCCCC1)CC2
Outline: as §1

entospletinib = compound: c1cn2cc(-c3ccc4cn[nH]c4c3)nc(Nc3ccc(N4CCOCC4)cc3)c2n1 [entospletinib]
Outline: as §1

Row | Target | log2 fold change [1] | log2 fold change (vorinostat) | log2 fold change (silmitasertib) | log2 fold change [2] | log2 fold change (entospletinib)
1 | AIF1 (UniProt P55008) | inactive: -0.033 | inactive: -0.16 | inactive: -0.009 | inactive: 0.017 | 
2 | ACTN1 isoform 3 (UniProt P12814) | inactive: -0.008 | inactive: 0.097 | inactive: -0.005 | inactive: 0.002 | inactive: 0.027
3 | ADPRHL2 (UniProt Q9NX46) | inactive: 0.013 | inactive: 0.012 | inactive: 0.005 | inactive: 0.039 | inactive: -0.005
4 | ADRM1 (UniProt Q16186) | inactive: 0.051 | active: -0.231 | inactive: -0.027 | inactive: -0.04 | inactive: -0.002
5 | ADAR isoform 4 (UniProt P55265) | inactive: -0.029 | active: -0.35 | inactive: 0.019 | inactive: -0.031 | inactive: 0.022
6 | AKAP11 (UniProt Q9UKA4) | inactive: -0.066 | inactive: -0.164 | inactive: 0.019 | inactive: -0.057 | inactive: 0.015
7 | AKR1A1 (UniProt P14550) | inactive: 0.029 | inactive: 0.004 | inactive: 0.011 | inactive: 0.002 | inactive: 0.011
8 | ACTR3 (UniProt P61158) | inactive: -0.018 | inactive: 0.064 | inactive: 0.018 | inactive: -0.04 | inactive: 0.042
9 | ADSS2 (UniProt P30520) | inactive: 0.002 | inactive: 0.004 | inactive: -0.003 | inactive: -0.003 | inactive: 0.007
10 | AGO3 (UniProt Q9H9G7) | inactive: 0.017 | inactive: -0.015 | inactive: -0.022 | inactive: -0.034 | inactive: -0.043
11 | AGTRAP (UniProt Q6RW13) | inactive: -0.117 | inactive: 0.069 | inactive: -0.001 | inactive: 0.021 | inactive: 0.056
12 | ADIPOR1 (UniProt Q96A54) | inactive: -0.114 | inactive: 0.124 | inactive: -0.009 | inactive: -0.049 | inactive: 0.041
13 | AKR1B1 (UniProt P15121) | inactive: -0.018 | active: 0.24 | inactive: -0.004 | inactive: -0.026 | inactive: -0.065
14 | ADAL (UniProt Q6DHV7) | inactive: 0.006 | inactive: 0.189 | inactive: -0.041 | inactive: -0.039 | inactive: -0.01
15 | ACSL3 (UniProt O95573) | inactive: 0.016 | inactive: -0.129 | inactive: 0.114 | inactive: 0.016 | inactive: 0.023
16 | AIMP2 (UniProt Q13155) | inactive: -0.046 | active: -0.347 | inactive: 0.048 | inactive: 0.017 | inactive: -0.017
17 | AKR7A2 (UniProt O43488) | inactive: 0.011 | inactive: -0.089 | inactive: 0.016 | inactive: -0.039 | inactive: 0.029
18 | ACOX1 isoform 2 (UniProt Q15067) | inactive: 0.009 | inactive: 0.09 | inactive: 0.009 | inactive: 0.04 | inactive: -0.012
19 | AK6 (UniProt Q9Y3D8) | inactive: -0.018 | inactive: -0.078 | inactive: 0.001 | inactive: -0.075 | inactive: 0.011

Row | Target | log2 fold change [1] | log2 fold change (vorinostat) | log2 fold change (silmitasertib) | log2 fold change [2] | log2 fold change (entospletinib)
20 | AGTPBP1 (UniProt Q9UPW5) | inactive: 0.125 | inactive: -0.033 | inactive: -0.012 | inactive: 0.11 | inactive: 0.035
21 | ACTB, A0A2R8YGF8 | inactive: 0.197 |  |  |  | 
22 | ACTB, A0A2R8YEA7 | inactive: 0.203 |  |  |  | 
23 | ACP1 (UniProt P24666) | inactive: 0.008 | inactive: -0.085 | inactive: 0.08 | inactive: 0.015 | inactive: -0.041
24 | AK5 (UniProt Q9Y6K8) | inactive: -0.089 | inactive: 0.093 | inactive: -0.035 | inactive: 0.05 | inactive: 0.029
25 | AGPAT1 (UniProt Q99943) | inactive: -0.027 | active: -0.27 | inactive: 0.106 | inactive: -0.029 | inactive: 0.003
26 | ADAM10 (UniProt O14672) | inactive: 0.065 | inactive: 0.069 | inactive: 0.002 | inactive: -0.005 | inactive: 0.011
27 | AGGF1 (UniProt Q8N302) | inactive: 0.135 | inactive: 0.059 | inactive: -0.06 | inactive: 0 | inactive: -0.015
28 | ACP2 (UniProt P11117) | inactive: -0.012 | inactive: 0.085 | inactive: 0.067 | inactive: 0 | inactive: -0.024
29 | ACTL6A (UniProt O96019) | inactive: 0.005 | inactive: 0 | inactive: -0.005 | inactive: -0.027 | inactive: 0.003
30 | AK3 (UniProt Q9UIJ7) | inactive: -0.004 | inactive: 0.134 | inactive: -0.028 | inactive: -0.015 | inactive: 0.006
31 | AFDN (UniProt A8MQ02) | inactive: -0.191 |  |  |  | 
32 | AGAP3 isoform 4 (UniProt Q96P47) | inactive: 0.028 | inactive: -0.203 | inactive: -0.019 | inactive: -0.001 | inactive: -0.023
33 | ACVR2B (UniProt Q13705) | inactive: 0.212 | inactive: -0.027 | inactive: 0.062 |  | 
34 | ACTR6 (UniProt Q9GZN1) | inactive: 0.013 | inactive: 0.061 | inactive: 0.03 | inactive: -0.082 | inactive: -0.014
35 | ADD1 isoform 3 (UniProt P35611) | inactive: -0.024 | inactive: 0.048 | inactive: -0.012 | inactive: -0.022 | inactive: -0.014
36 | AGAP1 (UniProt Q9UPQ3) | inactive: -0.171 | inactive: -0.246 | inactive: 0.007 | inactive: 0.014 | 
37 | ACYP2 (UniProt P14621) | inactive: 0.066 | inactive: 0.147 | inactive: -0.081 | inactive: 0.012 | 
38 | ACOT8 (UniProt O14734) | inactive: -0.006 | inactive: 0.063 | inactive: 0.032 | inactive: -0.003 | inactive: -0.044

Row | Target | log2 fold change [1] | log2 fold change (vorinostat) | log2 fold change (silmitasertib) | log2 fold change [2] | log2 fold change (entospletinib)
39 | ACTN4 (UniProt O43707) | inactive: 0.016 | inactive: 0.139 | inactive: -0.027 | inactive: 0.003 | inactive: 0.001
40 | AFP (UniProt P02771) | inactive: -0.065 | inactive: -0.017 | inactive: 0.057 | inactive: -0.019 | inactive: 0.026
41 | AGO2 (UniProt Q9UKV8) | inactive: 0.028 | inactive: 0.044 | inactive: -0.037 | inactive: 0.016 | inactive: -0.022
42 | AGO1 (UniProt Q9UL18) | inactive: 0.031 | inactive: 0.08 | inactive: -0.058 | inactive: 0.003 | inactive: -0.06
43 | ACTR1B (UniProt P42025) | inactive: 0.004 | inactive: 0.079 | inactive: -0.01 | inactive: -0.07 | inactive: 0.02
44 | ADK (UniProt P55263) | inactive: -0.049 | inactive: -0.052 | inactive: 0.073 | inactive: 0.262 | inactive: -0.027
45 | ACP1 isoform 2 (UniProt P24666) | inactive: -0.01 | inactive: -0.175 | inactive: 0.03 | inactive: 0.023 | inactive: 0.035
46 | ADSS1 (UniProt Q8N142) | inactive: 0.055 | inactive: -0.068 | inactive: -0.022 | inactive: -0.015 | inactive: -0.02
47 | AKAP9 (UniProt Q99996) | inactive: 0.071 | inactive: -0.098 | inactive: 0.003 | inactive: 0.009 | inactive: -0.013
48 | ACSL4 (UniProt O60488) | inactive: 0.137 | active: -0.321 | inactive: 0.066 | inactive: -0.002 | inactive: 0.014
49 | ACOT9 isoform 4 (UniProt Q9Y305) | inactive: -0.027 | inactive: -0.185 | inactive: 0.021 | inactive: -0.049 | inactive: 0.016
50 | ADAM17 (UniProt P78536) | inactive: 0.014 | inactive: 0.089 | inactive: -0.006 | inactive: 0.042 | inactive: 0.014
51 | AHSA1 (UniProt O95433) | inactive: 0.011 | inactive: 0.059 | inactive: -0.012 | inactive: -0.009 | inactive: 0.013
52 | ADAMTS5 (UniProt Q9UNA0) | inactive: 0.137 | inactive: 0.028 | inactive: -0.065 | inactive: 0.062 | inactive: -0.125
53 | AKAP12 (UniProt Q02952) | inactive: 0.101 | inactive: -0.068 | inactive: 0.006 | inactive: 0.007 | inactive: -0.127
54 | AGPAT5 (UniProt Q9NUQ2) | inactive: -0.09 | inactive: 0.007 | inactive: 0.032 | inactive: -0.026 | inactive: 0.022
55 | ACSM3 (UniProt Q53FZ2) | inactive: 0.009 | inactive: 0.041 | inactive: -0.021 | inactive: -0.026 | inactive: -0.029
56 | ACTA1 (UniProt P68133) | inactive: 0.031 | inactive: -0.023 | inactive: 0.005 | inactive: 0.026 | inactive: 0.017

Single records (already shown).
AGTRAP (UniProt Q6RW13) in the list: log2 fold change [1]: inactive: -0.117; log2 fold change (vorinostat): inactive: 0.069; log2 fold change (silmitasertib): inactive: -0.001; log2 fold change [2]: inactive: 0.021; log2 fold change (entospletinib): inactive: 0.056
AGPAT1 (UniProt Q99943) in the list: log2 fold change [1]: inactive: -0.027; log2 fold change (vorinostat): active: -0.27; log2 fold change (silmitasertib): inactive: 0.106; log2 fold change [2]: inactive: -0.029; log2 fold change (entospletinib): inactive: 0.003
ADD1 isoform 3 (UniProt P35611) in the list: log2 fold change [1]: inactive: -0.024; log2 fold change (vorinostat): inactive: 0.048; log2 fold change (silmitasertib): inactive: -0.012; log2 fold change [2]: inactive: -0.022; log2 fold change (entospletinib): inactive: -0.014
